Results taken from patent US10006080B2, “High-selectivity contact activation inhibitor based on infestin-4” (OBSCHESTVO S OGRANICHENNOY OTVETSTVENNOSTYU …, priority 2013, dated 2018).
No constants are given. Whether binding was seen depends on the method and setting. Some results given as binding are weak or reduced against the parent protein; the word gives no strength.

Protein sequences, listed by entry. Tags and fused reporters are not part of them. Residues count along the entry.
UniProt P03951, residues 19-625: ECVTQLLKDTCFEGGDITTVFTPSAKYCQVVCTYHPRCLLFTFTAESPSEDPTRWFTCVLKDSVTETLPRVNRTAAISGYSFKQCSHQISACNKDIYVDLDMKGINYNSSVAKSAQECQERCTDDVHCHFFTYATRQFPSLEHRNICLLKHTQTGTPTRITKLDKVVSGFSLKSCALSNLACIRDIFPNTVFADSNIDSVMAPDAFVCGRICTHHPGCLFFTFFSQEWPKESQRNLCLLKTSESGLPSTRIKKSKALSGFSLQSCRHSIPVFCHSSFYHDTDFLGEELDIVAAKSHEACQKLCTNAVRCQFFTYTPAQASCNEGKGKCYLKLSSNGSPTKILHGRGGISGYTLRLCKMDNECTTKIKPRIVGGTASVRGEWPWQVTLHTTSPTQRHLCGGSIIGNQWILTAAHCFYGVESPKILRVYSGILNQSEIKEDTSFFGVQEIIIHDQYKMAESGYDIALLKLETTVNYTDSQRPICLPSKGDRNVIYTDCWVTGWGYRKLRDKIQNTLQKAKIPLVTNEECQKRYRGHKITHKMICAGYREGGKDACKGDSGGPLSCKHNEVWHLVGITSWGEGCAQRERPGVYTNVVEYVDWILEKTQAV

Assays:
[1] = target: T1, factor XIIa (UniProt P00748 20-615, limits assumed); assay: chromogenic protease inhibition test in buffer
T1 construct: also called fXIIa
T1 sequence (looked up): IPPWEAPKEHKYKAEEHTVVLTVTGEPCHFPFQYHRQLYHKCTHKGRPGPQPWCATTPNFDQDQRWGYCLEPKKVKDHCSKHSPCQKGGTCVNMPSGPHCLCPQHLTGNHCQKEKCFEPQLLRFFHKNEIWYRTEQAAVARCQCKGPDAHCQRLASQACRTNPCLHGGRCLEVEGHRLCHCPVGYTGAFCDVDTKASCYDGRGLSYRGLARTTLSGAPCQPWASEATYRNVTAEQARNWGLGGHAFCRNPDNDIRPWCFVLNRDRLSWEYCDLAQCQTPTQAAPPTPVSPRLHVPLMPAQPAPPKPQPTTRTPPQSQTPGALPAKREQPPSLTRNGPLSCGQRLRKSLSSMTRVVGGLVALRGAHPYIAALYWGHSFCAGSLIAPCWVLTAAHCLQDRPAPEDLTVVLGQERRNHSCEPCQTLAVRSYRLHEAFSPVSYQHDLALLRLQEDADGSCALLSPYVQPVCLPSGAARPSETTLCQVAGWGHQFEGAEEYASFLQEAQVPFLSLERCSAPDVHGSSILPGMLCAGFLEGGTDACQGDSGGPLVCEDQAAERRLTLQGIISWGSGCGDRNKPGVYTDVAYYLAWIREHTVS

[2] = target: factor XIa (UniProt P03951); assay: chromogenic protease inhibition test in buffer

B1: corn trypsin inhibitor (other, UniProt P01088 29-138, looked up)
chain: SAGTSCVPGWAIPHNPLPSCRWYVTSRTCGIGPRLPWPELKRRCCRELADIPAYCRCTALSILMDGAIPPGPDAQLEGRLEDLPGCPREVQRGFAATLVTEAECNLATIS
notes: Isolated from corn; also called CTI
binding [1]: binds | binding [2]: binds
